Patent publication US12491217B2, “Compositions and methods for promoting healthy neural development in an unborn baby” (The Regents of the University of California, priority 2019, dated 2025)

Test: Metabolomics of fetal brain at E14.5
Assay type: in vivo, C57Bl/6J mice
[1] = E14.5 fetal brain metabolite level, ANOVA contrast ABX vs SPF
[2] = E14.5 fetal brain metabolite level, ANOVA contrast GF vs ABX
[3] = E14.5 fetal brain metabolite level, ANOVA contrast GF vs SPF
[4] = E14.5 fetal brain metabolite level, ANOVA contrast GF vs Sp
[5] = E14.5 fetal brain metabolite level, ANOVA contrast Sp vs ABX
[6] = E14.5 fetal brain metabolite level, ANOVA contrast Sp vs SPF
[7] = metabolite level in E14.5 fetal brain, ANOVA contrast ABX/SPF
[8] = metabolite level in E14.5 fetal brain, ANOVA contrast GF/ABX
[9] = metabolite level in E14.5 fetal brain, ANOVA contrast GF/SPF
[10] = metabolite level in E14.5 fetal brain, ANOVA contrast GF/Sp
[11] = metabolite level in E14.5 fetal brain, ANOVA contrast Sp/ABX
[12] = metabolite level in E14.5 fetal brain, ANOVA contrast Sp/SPF

Structure (SMILES)	fold of change ABX/SPF [1]	fold of change GF/ABX [2]	fold of change GF/SPF [3]	fold of change GF/Sp [4]	fold of change Sp/ABX [5]	fold of change Sp/SPF [6]	fold of change ABX/SPF [7]	fold of change GF/ABX [8]	fold of change GF/SPF [9]	fold of change GF/Sp [10]	fold of change Sp/ABX [11]	fold of change Sp/SPF [12]
CCCCCCCCCCCCC/C=C/[C@@H](O)[C@H](COP(=O)([O-])OCC[N+](C)(C)C)NC(=O)CCCCCCCCCCCCCCCCCCCCC [compound 2568]	0.64	0.95	0.60	0.76	1.25	0.80	–	–	–	–	–	–
CCCCCCCCCCCCC/C=C/[C@@H](O)[C@H](COP(=O)([O-])OCC[N+](C)(C)C)NC(=O)CCCCCCCCCCCCCCCCCCCCCC [compound 2569]	0.53	1.33	0.71	1.06	1.26	0.67	–	–	–	–	–	–
CCCCCCCCCCCCC/C=C/[C@@H](O)[C@H](COP(=O)([O-])OCC[N+](C)(C)C)NC(=O)CCCCCCCCCCCCCCCCCCCCCCC [compound 2570]	0.64	1.15	0.73	0.92	1.25	0.80	–	–	–	–	–	–
CCCCCCCCCCCCC/C=C/[C@@H](O)[C@@H](N)CO [compound 2594]	0.84	0.98	0.82	0.94	1.05	0.88	–	–	–	–	–	–
CC(O)(CC(=O)O)CC(=O)O [compound 2610]	0.52	1.11	0.57	0.79	1.40	0.73	–	–	–	–	–	–
CC(C)=CCC[C@@H](C)[C@H]1CC[C@H]2[C@@H]3CC=C4C[C@@H](O)CC[C@]4(C)[C@H]3CC[C@]12C [compound 2624]	0.78	0.94	0.73	0.80	1.17	0.91	–	–	–	–	–	–
CC(C)CCC[C@@H](C)[C@H]1CC[C@H]2[C@@H]3CCC4=CC(=O)CC[C@]4(C)[C@H]3CC[C@]12C [compound 2649]	–	–	–	–	–	–	0.66	1.46	0.97	0.87	1.67	1.10
CC(C)C(C)CCC(C)C1CCC2C3CC=C4CC(O)CCC4(C)C3CCC12C (stereo not drawn) [compound 2652]	–	–	–	–	–	–	0.65	0.87	0.57	0.71	1.22	0.80
CC(C)CCCC(C)C1CCC2C3C(O)C=C4CC(O)CCC4(C)C3CCC12C (stereo not drawn) [compound 2669]	–	–	–	–	–	–	0.11	6.75	0.74	0.62	10.96	1.20
O=c1[nH]cnc2c1ncn2[C@@H]1O[C@H](CO)[C@@H](O)[C@H]1O [compound 3454]	–	–	–	–	–	–	0.90	0.91	0.82	0.91	1.00	0.90
O=c1[nH]cnc2[nH]cnc12 [compound 3455]	–	–	–	–	–	–	0.80	0.89	0.71	0.88	1.01	0.81
O=c1[nH]c(=O)c2[nH]cnc2[nH]1 [compound 3456]	–	–	–	–	–	–	0.45	0.69	0.31	0.56	1.24	0.56
O=c1[nH]c(=O)c2ncn([C@@H]3O[C@H](CO)[C@@H](O)[C@H]3O)c2[nH]1 [compound 3458]	–	–	–	–	–	–	0.67	0.42	0.28	0.74	0.57	0.38
Cn1cnc2c(ncn2[C@@H]2O[C@H](CO)[C@@H](O)[C@H]2O)c1=O [compound 3461]	–	–	–	–	–	–	0.69	1.05	0.73	0.88	1.20	0.83
O=c1[nH]cnc2c1ncn2[C@H]1C[C@H](O)[C@@H](CO)O1 [compound 3462]	–	–	–	–	–	–	0.91	0.87	0.79	0.84	1.03	0.94
O=c1[nH]c(=O)c2[nH]c(=O)[nH]c2[nH]1 [compound 3464]	–	–	–	–	–	–	0.46	1.49	0.69	0.83	1.81	0.84
NC(=O)NC1NC(=O)NC1=O (stereo not drawn) [compound 3466]	–	–	–	–	–	–	0.60	0.95	0.57	0.80	1.19	0.72
Nc1ncnc2c1ncn2[C@@H]1O[C@H](COP(=O)(O)OP(=O)(O)O)[C@@H](O)[C@H]1O [compound 3471]	–	–	–	–	–	–	0.77	1.40	1.07	1.04	1.35	1.03
Nc1ncnc2c1ncn2[C@@H]1O[C@H](COP(=O)(O)O)[C@@H](O)[C@H]1O [compound 3472]	–	–	–	–	–	–	0.98	1.10	1.07	1.07	1.03	1.01
Nc1ncnc2c1ncn2[C@@H]1O[C@H](CO)[C@@H](OP(=O)(O)O)[C@H]1O [compound 3473]	–	–	–	–	–	–	0.78	1.18	0.92	0.79	1.49	1.16
Nc1ncnc2c1ncn2[C@@H]1O[C@H](CO)[C@@H](O)[C@H]1OP(=O)(O)O [compound 3474]	–	–	–	–	–	–	0.83	1.27	1.05	0.91	1.40	1.15
O=C(O)C[C@H](Nc1ncnc2c1ncn2[C@@H]1O[C@H](COP(=O)(O)O)[C@@H](O)[C@H]1O)C(=O)O [compound 3478]	–	–	–	–	–	–	0.75	0.91	0.69	0.94	0.97	0.73
Nc1ncnc2c1ncn2[C@@H]1O[C@H](CO)[C@@H](O)[C@H]1O [compound 3479]	–	–	–	–	–	–	0.86	1.23	1.06	1.25	0.98	0.85
Cn1cnc2c(ncn2[C@@H]2O[C@H](CO)[C@@H](O)[C@H]2O)c1=N [compound 3485]	–	–	–	–	–	–	0.61	1.00	0.61	0.87	1.16	0.70
C[C@@H](O)[C@H](NC(=O)Nc1ncnc2c1ncn2[C@@H]1O[C@H](CO)[C@@H](O)[C@H]1O)C(=O)O [compound 3495]	–	–	–	–	–	–	0.78	0.99	0.77	0.88	1.12	0.87
Nc1ncnc2c1ncn2[C@H]1C[C@H](O)[C@@H](COP(=O)(O)O)O1 [compound 3498]	–	–	–	–	–	–	1.18	1.00	1.17	1.12	0.89	1.05
O=C(O)C[C@H](Nc1ncnc2c1ncn2[C@@H]1O[C@H](CO)[C@@H](O)[C@H]1O)C(=O)O [compound 3505]	–	–	–	–	–	–	0.73	0.72	0.53	0.81	0.89	0.65
Nc1nc2c(ncn2[C@@H]2O[C@H](COP(=O)(O)OP(=O)(O)O)[C@@H](O)[C@H]2O)c(=O)[nH]1 [compound 3507]	–	–	–	–	–	–	0.73	1.04	0.76	0.92	1.13	0.83
Nc1nc2c(ncn2[C@@H]2O[C@H](COP(=O)(O)O)[C@@H](O)[C@H]2O)c(=O)[nH]1 [compound 3508]	–	–	–	–	–	–	0.90	0.91	0.82	0.98	0.92	0.83
Nc1nc2c(ncn2[C@@H]2O[C@H](CO)[C@@H](O)[C@H]2O)c(=O)[nH]1 [compound 3513]	–	–	–	–	–	–	1.05	0.84	0.89	1.07	0.79	0.83
